In patent publication EP1987837A1 (Technische Universität Dresden Medizinische Fakultät Carl …, dated 2008):

Columns and labels:
[1] = target: ICA512-TMF (rat) (UniProt Q63259); assay: co-immunoprecipitation (title of the figure legend)
[2] = target: ICA512-TMF (rat) (UniProt Q63259); assay: co-immunoprecipitation with rabbit anti-ICA512ecto from INS-1E cell extracts, anti-GFP blot
[3] = target: GST-ICA512extracellular (Homo sapiens (Human)); assay: GST pull-down, SDS-PAGE and autoradiography

Binder	binding [1]	binding [2]	binding [3]
ICA512-CCF-GFP (protein, not shown: large carriers; small tags and cut ends, C-terminal GFP fusion not carried in the letters) SQFSDAAQASPSSHSSTPSWCEEPAQANMDISTGHMILAYMEDHLRNRDRLAKEWQALCAYQAEPNTCATAQGEGNIKKNRHPDFLPYDHARIKLKVESSPSRSDYINASPIIEHDPRMPAYIATQGPLSHTIADFWQMVWESGCTVIVMLTPLVEDGVKQCDRYWPDEGASLYHVYEVNLVSEHIWCEDFLVRSFYLKNVQTQETRTLTQFHFLSWPAEGTPASTRPLLDFRRKVNKCYRGRSCPIIVHCSDGAGRTGTYILIDMVLNRMAKGVKEIDIAATLEHVRDQRPGLVRSKDQFEFALTAVAEEVNAILKALPQ	binds	binds	–
35S-ICA512601-979 (protein, 35S-methionine labelled) RQHARQQDKERLAALGPEGAHGDTTFEYQDLCRQHMATKSLFNRAEGPPEPSRVSSVSSQFSDAAQASPSSHSSTPSWCEEPAQANMDISTGHMILAYMEDHLRNRDRLAKEWQALCAYQAEPNTCATAQGEGNIKKNRHPDFLPYDHARIKLKVESSPSRSDYINASPIIEHDPRMPAYIATQGPLSHTIADFWQMVWESGCTVIVMLTPLVEDGVKQCDRYWPDEGASLYHVYEVNLVSEHIWCEDFLVRSFYLKNVQTQETRTLTQFHFLSWPAEGTPASTRPLLDFRRKVNKCYRGRSCPIIVHCSDGAGRTGTYILIDMVLNRMAKGVKEIDIAATLEHVRDQRPGLVRSKDQFEFALTAVAEEVNAILKALPQ	–	–	no binding
35S-ICA512700-979 (protein, 35S-methionine labelled) EDHLRNRDRLAKEWQALCAYQAEPNTCATAQGEGNIKKNRHPDFLPYDHARIKLKVESSPSRSDYINASPIIEHDPRMPAYIATQGPLSHTIADFWQMVWESGCTVIVMLTPLVEDGVKQCDRYWPDEGASLYHVYEVNLVSEHIWCEDFLVRSFYLKNVQTQETRTLTQFHFLSWPAEGTPASTRPLLDFRRKVNKCYRGRSCPIIVHCSDGAGRTGTYILIDMVLNRMAKGVKEIDIAATLEHVRDQRPGLVRSKDQFEFALTAVAEEVNAILKALPQ	–	–	no binding

No constants are given. Whether binding was seen depends on the method and setting. For some of these results: In cells and extracts the contact can be indirect. For some of these results: Binding can be weak; no strength is given. For some of these results: Where a sequence is shown, tags or fusion partners need not be part of it.
